# Reference: the supplement of paper PMC4604168 (melanoma cell lines)
# Some of the results follow. Repeats are few or missing, and single values can be far off.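 Imaging used 1,536-well plates; nuclei positive for cleaved PARP by antibody were divided by total DNA-stained nuclei to yield the apoptosis fraction. Doses for screening kept most cells viable, and cell lines differ markedly in resting and induced cleaved-PARP levels.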
# Test system: CBRC016 (line from a melanoma biopsy)
# Test: cleaved PARP positive nuclei fraction relative to DMSO control; melanoma cells; higher = more apoptosis
# Settings: library dose: low library concentration; 72 h
row,SMILES,cleaved PARP positive nuclei fraction [%]
1,"COc1ccc(-c2ccc3c(N4CCOCC4)nc(N4C[C@@H](C)O[C@@H](C)C4)nc3n2)cc1CO + CCCCCCCCCCCC1=C(O)C(=O)C=C(O)C1=O [Embelin] (first compound 0.02 µM, partner dose 1.2 µM)",46.3
2,"Cn1cc(/C=C2\C(=O)Nc3cccnc32)c2ccccc21 + CCCCCCCCCCCC1=C(O)C(=O)C=C(O)C1=O [Embelin] (first compound 0.4 µM, partner dose 1.2 µM)",31.5
3,"NCC(=O)Nc1ccc(-n2nc(C(F)(F)F)cc2-c2ccc3c(ccc4ccccc43)c2)cc1 + COc1ccc(-c2ccc3c(N4CCOCC4)nc(N4C[C@@H](C)O[C@@H](C)C4)nc3n2)cc1CO [KU0063794] (first compound 1 µM, partner dose 0.02 µM)",84
4,"CCN(CC)CCCCNc1ncc2cc(-c3cc(OC)cc(OC)c3)c(NC(=O)NC(C)(C)C)nc2n1 + Oc1nc(-c2ccc(C(F)(F)F)cc2)nc2c1CSCC2 [XAV939] (first compound 0.1 µM, partner dose 2 µM)",36.4
5,"O=C(O)c1ccc(-c2c[nH]c3ncc(-c4ccccc4)cc23)cc1C1CCCC1 + O=c1cc(-c2cccc3c2Sc2ccccc2S3)oc(N2CCOCC2)c1 [KU55933] (first compound 0.16 µM, partner dose 1 µM)",108
6,"CCN(CC)CCCCNc1ncc2cc(-c3cc(OC)cc(OC)c3)c(NC(=O)NC(C)(C)C)nc2n1 + O=S(=O)(c1ccccc1)N(CC(F)(F)F)c1ccc(C(O)(C(F)(F)F)C(F)(F)F)cc1 [T0901317] (first compound 0.1 µM, partner dose 1.4 µM)",72.9
7,"COc1ccc2c(c1)CCC1C2CCC2(C)C(NCCCCCCN3C(=O)C=CC3=O)CCC12 (stereo unspecified) + COc1ccc(-c2ccc3c(N4CCOCC4)nc(N4C[C@@H](C)O[C@@H](C)C4)nc3n2)cc1CO [KU0063794] (first compound 0.4 µM, partner dose 0.02 µM)",114
8,"COc1cc2c(Oc3ccc4[nH]c(C)cc4c3F)ncnc2cc1OCCCN1CCCC1 [cediranib] + Oc1nc(-c2ccc(C(F)(F)F)cc2)nc2c1CSCC2 [XAV939] (first compound 0.4 µM, partner dose 2 µM)",74.4
9,"COc1ccc(-c2ccc3c(N4CCOCC4)nc(N4C[C@@H](C)O[C@@H](C)C4)nc3n2)cc1CO + COc1ccc(COc2ccc(Cc3cnc(N)nc3N)cc2OC)cc1 [GW2580] (first compound 0.02 µM, partner dose 1 µM)",43.6
10,"O=C(Nc1ccccc1)c1cc([N+](=O)[O-])ccc1Cl + c1cc(-c2cnn3cc(-c4ccc(OCCN5CCCCC5)cc4)cnc23)ccn1 [Dorsomorphin] (first compound 2 µM, partner dose 0.4 µM)",89.4
11,"NCC(=O)Nc1ccc(-n2nc(C(F)(F)F)cc2-c2ccc3c(ccc4ccccc43)c2)cc1 + O=c1cc(-c2cccc3c2Sc2ccccc2S3)oc(N2CCOCC2)c1 [KU55933] (first compound 1 µM, partner dose 1 µM)",114
12,"COC(=O)c1sccc1S(=O)(=O)Nc1ccc(Nc2ccccc2)cc1OC + COc1ccc(COc2ccc(Cc3cnc(N)nc3N)cc2OC)cc1 [GW2580] (first compound 1 µM, partner dose 1 µM)",110
13,"NCC(=O)Nc1ccc(-n2nc(C(F)(F)F)cc2-c2ccc3c(ccc4ccccc43)c2)cc1 + Oc1nc(-c2ccc(C(F)(F)F)cc2)nc2c1CSCC2 [XAV939] (first compound 1 µM, partner dose 2 µM)",25
14,"NCC(=O)Nc1ccc(-n2nc(C(F)(F)F)cc2-c2ccc3c(ccc4ccccc43)c2)cc1 + N#Cc1c(O)c2c(-c3ccc(-c4ccccc4O)cc3)csc2[nH]c1=O [A769662] (first compound 1 µM, partner dose 2 µM)",94.8
15,"CCc1ccc(CCOc2ccc(CC3SC(=O)NC3=O)cc2)nc1 (stereo unspecified) [pioglitazone] + COc1ccc2c(c1)CCC1C2CCC2(C)C(NCCCCCCN3C(=O)C=CC3=O)CCC12 [U73122] (first compound 2 µM, partner dose 0.4 µM)",68.7
16,"COc1cc(N2CCC(N3CCN(C)CC3)CC2)ccc1Nc1ncc(Cl)c(Nc2ccccc2S(=O)(=O)C(C)C)n1 + CCCCCCCCCCCC1=C(O)C(=O)C=C(O)C1=O [Embelin] (first compound 0.08 µM, partner dose 1.2 µM)",36

# Retrieved one by one from the list above (2):
row,SMILES,cleaved PARP positive nuclei fraction [%]
14,"NCC(=O)Nc1ccc(-n2nc(C(F)(F)F)cc2-c2ccc3c(ccc4ccccc43)c2)cc1 + N#Cc1c(O)c2c(-c3ccc(-c4ccccc4O)cc3)csc2[nH]c1=O [A769662] (first compound 1 µM, partner dose 2 µM)",94.8
15,"CCc1ccc(CCOc2ccc(CC3SC(=O)NC3=O)cc2)nc1 (stereo unspecified) [pioglitazone] + COc1ccc2c(c1)CCC1C2CCC2(C)C(NCCCCCCN3C(=O)C=CC3=O)CCC12 [U73122] (first compound 2 µM, partner dose 0.4 µM)",68.7
